# In publication PMC7819943, “Rice protein-binding microarrays: a tool to detect cis-acting elements near promoter regions in rice”:
# Protein sequences, listed by entry. Tags and fused reporters are not part of them.
# UniProt Q0JBA9, entry or part of it: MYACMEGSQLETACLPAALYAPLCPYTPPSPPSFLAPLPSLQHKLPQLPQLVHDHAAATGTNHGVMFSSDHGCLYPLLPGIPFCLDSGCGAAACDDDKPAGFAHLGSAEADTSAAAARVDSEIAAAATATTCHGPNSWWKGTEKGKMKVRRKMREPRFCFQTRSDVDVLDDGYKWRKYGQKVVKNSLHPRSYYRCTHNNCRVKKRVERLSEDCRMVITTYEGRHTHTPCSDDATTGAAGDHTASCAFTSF
# This is one part of the list.
# Biological target: OsWRKY34 (Oryza sativa, UniProt Q0JBA9 1-250)
# Assay: protein-binding microarray (RPBM); PBS, 2% BSA, 51.3 ng/ul salmon testes DNA, 50 uM zinc acetate, 200 nM TF, 25 C, 1 h; high values mean tight binding
# Conditions: protein: recombinant; tags: N-terminal polyhistidine and DsRed monomer fusion (pET32a); label: CyDye5-dUTP incorporated in the synthesized complementary strand; 3' TTTTT single-stranded linker to array surface; dsDNA, one strand shown
# How it was run: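 Binding signal is defined as the fluorescence intensity of each feature in arbitrary units, read on an Axon 4000B scanner. Transcription factors with N-terminal polyhistidine and DsRed fusions came from E. coli BL21-CodonPlus and were purified on Ni–NTA. They were incubated at 200 nM for 1 h at 25 °C on a custom Agilent array that had been made double-stranded with Cy5-dUTP, with 50 µM zinc acetate present, and the array was washed.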
row,Sequence,binding signal
1,TTAATCACACACGCCTGCTTAATTAATCATCTCCTATCACCGGAGTCACCTAGTGCAG,9010 fluorescence intensity (a.u.)
2,GCCGCTACTCGCCTTCGCTTCCGCCTTCGTTGCTGGTTGCCGGAGTCACCTAGTGCAG,9450 fluorescence intensity (a.u.)
3,CTACAGCTACCATCCTCTCTGTTCTTTTTTTTAATGTTCCCGGAGTCACCTAGTGCAG,12900 fluorescence intensity (a.u.)
4,AACTTTACAATTTTTTTATGTCATCCATGTCACATGTTTTCGGAGTCACCTAGTGCAG,9030 fluorescence intensity (a.u.)
5,CACTCAACACTTAATGTTACGATAATCTGTTACTTGTATGCGGAGTCACCTAGTGCAG,8690 fluorescence intensity (a.u.)
6,GCCCTACTGCCCTTGACACGTCGTCCATCCCATCGAACCGCGGAGTCACCTAGTGCAG,10600 fluorescence intensity (a.u.)
7,CGGCGCCCACCACCACCACCACCACGACCCCGACCTCCGTCGGAGTCACCTAGTGCAG,10800 fluorescence intensity (a.u.)
8,CCGCATTTTAATGTATGACGTCATTGACTTTTCGATCAACCGGAGTCACCTAGTGCAG,10200 fluorescence intensity (a.u.)
9,AACGGTTGGGCTCATGAAATGACACTATTGGTGGTTGTGACGGAGTCACCTAGTGCAG,8680 fluorescence intensity (a.u.)
10,AGTATTGTTTTACCGGTGGGGTCTGAATTTCCGAAATTTTCGGAGTCACCTAGTGCAG,9020 fluorescence intensity (a.u.)
11,CGTCGTCGTTCTCCCTCCCTCCTCGAGAGTGGCAACAAAACGGAGTCACCTAGTGCAG,9110 fluorescence intensity (a.u.)
12,TCACTTCTTGGCCACCGTGCTGCCCGCCGTGGTGACCGACCGGAGTCACCTAGTGCAG,9480 fluorescence intensity (a.u.)
13,CGTCTTCGTCCTTGGCTTCTCCACCGAGCTCACCACAAACCGGAGTCACCTAGTGCAG,9080 fluorescence intensity (a.u.)
14,AATCGCCGCCCGCCACGTGTCGCCTTCCCTTGCACGCCATCGGAGTCACCTAGTGCAG,8950 fluorescence intensity (a.u.)
15,AGCTATGGCAGCTGCTTCTTCCTCGCGCGAACAAATCAATCGGAGTCACCTAGTGCAG,8610 fluorescence intensity (a.u.)
16,AAAACCACCTGTAACATAACAGAGTTACTATTGCTTTTTCCGGAGTCACCTAGTGCAG,8590 fluorescence intensity (a.u.)
17,AGGGATTTTAAGTTTTTGCTTGTATTGTTTGATCACTCATCGGAGTCACCTAGTGCAG,8270 fluorescence intensity (a.u.)
18,CCAGGAATTTCCATCCACCGGTTTCTTTTTCTCCCCTGAACGGAGTCACCTAGTGCAG,9400 fluorescence intensity (a.u.)
19,TGTTCATTTTGAATATCTGTACATACTGCTGGGTTATGACCGGAGTCACCTAGTGCAG,8310 fluorescence intensity (a.u.)
20,TGCTGTGGTGTGGTGTGGTGTGAATTTTGTTGATTGGTCGCGGAGTCACCTAGTGCAG,8750 fluorescence intensity (a.u.)
21,TTGCATACACATGGTCATCTCCCATTTCACCTGCAAGCAACGGAGTCACCTAGTGCAG,9870 fluorescence intensity (a.u.)

row,Sequence,binding signal
1,TCTAAACATCGGCGGCACATGGCTTCCGCCACACTTGACCCGGAGTCACCTAGTGCAG,8820 fluorescence intensity (a.u.)
2,ACCATCTCTCTCTCTCTCTCTGCATGCATATCTTCTCCTCCGGAGTCACCTAGTGCAG,14300 fluorescence intensity (a.u.)
3,GATGCATGCCTTCTTGTCTGTCATACGTCTCGTGCAATCGCGGAGTCACCTAGTGCAG,9090 fluorescence intensity (a.u.)
4,AGTCTAGGTTCTTCCGTTCTTGTGTTCATCGTAGAATTTTCGGAGTCACCTAGTGCAG,10400 fluorescence intensity (a.u.)
5,GCCGCCACCGCCACCGCCGCCGCCGCCGCATCCTCCTCCTCGGAGTCACCTAGTGCAG,9140 fluorescence intensity (a.u.)
6,TCTTCAGCTCCACAGTGTTTATCGATGTTTGCAATATTTCCGGAGTCACCTAGTGCAG,10100 fluorescence intensity (a.u.)
7,CGTAATTAAGGCTCTTATCCCCTCAGCATTCATCTTTGACCGGAGTCACCTAGTGCAG,9050 fluorescence intensity (a.u.)
8,TCGAATTTATATGTACTATTTTTTGGGATTTCTCGGGTATCGGAGTCACCTAGTGCAG,8960 fluorescence intensity (a.u.)
9,CTTGTTTTTCTACCTCCTGCCCTAAATGCCAAGTGTTAACCGGAGTCACCTAGTGCAG,9050 fluorescence intensity (a.u.)
10,AAACACCACTTTTCCATACTTAAATTTAATGCTACTTATCCGGAGTCACCTAGTGCAG,8530 fluorescence intensity (a.u.)
11,AGTACCTTGCAATGCCTATAATGTCTGTATCTGTTATTGTCGGAGTCACCTAGTGCAG,9050 fluorescence intensity (a.u.)
12,CCTTTCGTTTTGTACAGTTTGCTCATCTATTCAATGAAATCGGAGTCACCTAGTGCAG,8190 fluorescence intensity (a.u.)
13,ATTGTCCATTCCACTATTCCAGTATTCCACCACGCGCTGCCGGAGTCACCTAGTGCAG,10700 fluorescence intensity (a.u.)
14,TCCGTAGACCCGAGACACCCGACCCGACCTCGCCGCATCCCGGAGTCACCTAGTGCAG,9910 fluorescence intensity (a.u.)
15,TTTGTTCTTGGCAGACTATTGGCCTATCAGCTATCCAACTCGGAGTCACCTAGTGCAG,8740 fluorescence intensity (a.u.)
16,GGGTGTCATATAGGTCCAAGCGGGCTCCAAGTCGCTCCGTCGGAGTCACCTAGTGCAG,8460 fluorescence intensity (a.u.)
17,TTTTTTTTCATTTTTTTCTCTTAATTAATTACTCCATCCGCGGAGTCACCTAGTGCAG,9070 fluorescence intensity (a.u.)
18,CTAGTAATTTACTTATTAGTACCTGTGTAGTATTATCTATCGGAGTCACCTAGTGCAG,8580 fluorescence intensity (a.u.)
19,CCCACATGTCATGTCTCTTCCTACCCGGTCGCTCGCTCGCCGGAGTCACCTAGTGCAG,10500 fluorescence intensity (a.u.)
20,TTCTCCTGTTGCCCTATGGTCCCACTCTGCTAGTCTGCTTCGGAGTCACCTAGTGCAG,12400 fluorescence intensity (a.u.)
21,GTACAAGCAATTCCACTGCACCTCTTGTGTTAGTAAAACCCGGAGTCACCTAGTGCAG,10200 fluorescence intensity (a.u.)

# Single entries from above:
# binding signal, TCGAATTTATATGTACTATTTTTTGGGATTTCTCGGGTATCGGAGTCACCTAGTGCAG is entered as 8960 fluorescence intensity (a.u.)
# binding signal, CTAGTAATTTACTTATTAGTACCTGTGTAGTATTATCTATCGGAGTCACCTAGTGCAG is entered as 8580 fluorescence intensity (a.u.)
